Assay [1] has as its target T1, murine PiC2 (SLC25A3), mitochondrial phosphate carrier / Cu+ transporter (mouse (endogenous in primary myoblasts)) (UniProt Q8VEM8).
T1 sequence: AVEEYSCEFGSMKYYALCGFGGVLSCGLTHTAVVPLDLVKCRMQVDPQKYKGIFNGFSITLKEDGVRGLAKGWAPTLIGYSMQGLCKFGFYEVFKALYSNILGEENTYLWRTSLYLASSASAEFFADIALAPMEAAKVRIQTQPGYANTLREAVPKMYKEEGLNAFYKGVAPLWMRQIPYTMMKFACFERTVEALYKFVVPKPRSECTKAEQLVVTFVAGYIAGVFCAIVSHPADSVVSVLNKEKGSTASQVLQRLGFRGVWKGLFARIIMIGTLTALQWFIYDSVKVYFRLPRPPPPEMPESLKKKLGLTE
The experiment in a line: co-IP; extracts of proliferating and differentiating primary myoblasts grown with or without CuSO4; IP lysis buffer (50 mM Tris-HCl pH 7.5, 150 mM NaCl, 1% Nonidet P-40, 0.5% sodium deoxycholate); anti-PiC2 or anti-COX1 antibody, 4°C 2 h, protein A/G magnetic beads overnight; western blot. A general note: In western blotting, separated proteins are transferred to a membrane and probed.

For assay [2], the target named is cytochrome c oxidase subunit COX1 (mouse (endogenous in primary myoblasts)) (UniProt P00397). The assay is described as above.
In assay [3] the target is human PiC2 isoform A, N-terminal hexa-histidine tag (human) (UniProt Q00325). The experiment in a line: western blot of the purified recombinant protein; recombinant His-tagged PiC2A and PiC2B detected with anti-PiC2 and anti-His tag antibodies; both purified.

Results are given in words; binding and its absence hold for the method and conditions named. For some of these results: Binding seen in cells or lysates may run through a third protein. Some results given as binding are weak or reduced against the parent protein; the word gives no strength. For some of these results: Where a sequence is shown, tags or fusion partners need not be part of it.

For the molecule “cytochrome c oxidase subunit COX1 (from UniProt P00397 1-514)”, the binding entry in assay [1] was “binds”.

B1: murine PiC2 (SLC25A3), mitochondrial phosphate carrier / Cu+ transporter (protein, UniProt Q8VEM8 46-357)
chain: T1 sequence
Consider B1, for which the binding result in assay [2] is recorded as “binds”.

B2: human PiC2 isoform A, N-terminal hexa-histidine tag (protein, UniProt Q00325-1 50-362)
chain: AVEEQYSCDYGSGRFFILCGLGGIISCGTTHTALVPLDLVKCRMQVDPQKYKGIFNGFSVTLKEDGVRGLAKGWAPTFLGYSMQGLCKFGFYEVFKVLYSNMLGEENTYLWRTSLYLAASASAEFFADIALAPMEAAKVRIQTQPGYANTLRDAAPKMYKEEGLKAFYKGVAPLWMRQIPYTMMKFACFERTVEALYKFVVPKPRSECSKPEQLVVTFVAGYIAGVFCAIVSHPADSVVSVLNKEKGSSASLVLKRLGFKGVWKGLFARIIMIGTLTALQWFIYDSVKVYFRLPRPPPPEMPESLKKKLGLTQ
In the case of B2, in assay [3], the binding result is listed as “binds”.

B3: Sco2 (protein, UniProt Q8VCL2 42-255)
chain: QGPGLRTRLLITALFGAGLGWAWLAARAEKEQWRQQQRTEALRQAAVGQGDFSLLDHKGQPRCKADFRGQWVLMYFGFTHCPDICPDELEKLVQVVRKLEAEPDLPLVQPVFITVDPERDDVAAMARYVQEFHPRLLGLTGSTEQVAHASRNYRVYYSAGPKDEDQDYIVDHSIAIYLLNPDGLFTDYYGRSRSAEQIVESIRRHIAAFHSVLP
As to B3, in assay [1], the binding entry is given as “binds”.
